For at least one compound, name, drawing or mass did not settle the structure.
Assay: Quantum yield measurement of singlet oxygen (DPBF absorbance decay under light irradiation)
Type: physicochemical
Details: singlet oxygen quantum yield relative to tetraphenylporphyrin; DMSO, 27° C., 6.5×10^−7 M fullerene derivative, DPBF absorbance at 418 nm
Protocol: A DMSO solution containing 5.5×10^−5 M of 1,3-diphenylisobenzofuran (DPBF) was prepared, maintaining the water temperature in a waterbath at 27° C. 3 mL of the DMSO solution was poured into a quartz cell and a DMSO solution containing 1.5×10^−5 M of fullerene derivatives was added so that the concentration of the resulting solution is set to 6.5×10^−7 M. Subsequently, oxygen was bubbled through the solution for one minute or more. The cell was set in position within the waterbath, stirred using a multistirrer and irradiated with light every ten seconds to measure the absorbance of the DPBF at 418 nm. Natural logarithm of the absorbance thus measured was plotted against time of light irradiation to find the gradient. Thus, a relative scale with respect to the quantum yield of tetraphenylporphyrin (φ^1O2) was calculated.

For `C1=Cc2nc1c(-c1ccccc1)c1nc(c(-c3ccccc3)c3ccc([nH]3)c(-c3ccccc3)c3ccc([nH]3)c2-c2ccccc2)C=C1` [tetraphenylporphyrin, reference compound], the “Relative scale for φ^1O2” value was 1.0.
